This is one part of the list. Most entries show no effect beyond the scatter of the controls.

Amino acid sequences for entries named in this document (tags omitted). A change or cut given only in a name is not applied to a line headed by its entry.
UniProt Q8CBG9: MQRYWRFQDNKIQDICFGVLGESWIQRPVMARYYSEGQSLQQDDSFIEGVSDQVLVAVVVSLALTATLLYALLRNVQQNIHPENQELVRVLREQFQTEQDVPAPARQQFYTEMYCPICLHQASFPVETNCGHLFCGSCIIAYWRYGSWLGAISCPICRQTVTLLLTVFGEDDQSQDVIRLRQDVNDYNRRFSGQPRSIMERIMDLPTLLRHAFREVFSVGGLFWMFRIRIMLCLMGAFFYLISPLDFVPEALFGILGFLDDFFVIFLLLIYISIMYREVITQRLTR
UniProt Q8CEI1: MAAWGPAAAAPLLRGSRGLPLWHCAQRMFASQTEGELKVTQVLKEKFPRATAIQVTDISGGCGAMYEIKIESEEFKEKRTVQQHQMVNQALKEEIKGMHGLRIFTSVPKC
UniProt Q8CJF7: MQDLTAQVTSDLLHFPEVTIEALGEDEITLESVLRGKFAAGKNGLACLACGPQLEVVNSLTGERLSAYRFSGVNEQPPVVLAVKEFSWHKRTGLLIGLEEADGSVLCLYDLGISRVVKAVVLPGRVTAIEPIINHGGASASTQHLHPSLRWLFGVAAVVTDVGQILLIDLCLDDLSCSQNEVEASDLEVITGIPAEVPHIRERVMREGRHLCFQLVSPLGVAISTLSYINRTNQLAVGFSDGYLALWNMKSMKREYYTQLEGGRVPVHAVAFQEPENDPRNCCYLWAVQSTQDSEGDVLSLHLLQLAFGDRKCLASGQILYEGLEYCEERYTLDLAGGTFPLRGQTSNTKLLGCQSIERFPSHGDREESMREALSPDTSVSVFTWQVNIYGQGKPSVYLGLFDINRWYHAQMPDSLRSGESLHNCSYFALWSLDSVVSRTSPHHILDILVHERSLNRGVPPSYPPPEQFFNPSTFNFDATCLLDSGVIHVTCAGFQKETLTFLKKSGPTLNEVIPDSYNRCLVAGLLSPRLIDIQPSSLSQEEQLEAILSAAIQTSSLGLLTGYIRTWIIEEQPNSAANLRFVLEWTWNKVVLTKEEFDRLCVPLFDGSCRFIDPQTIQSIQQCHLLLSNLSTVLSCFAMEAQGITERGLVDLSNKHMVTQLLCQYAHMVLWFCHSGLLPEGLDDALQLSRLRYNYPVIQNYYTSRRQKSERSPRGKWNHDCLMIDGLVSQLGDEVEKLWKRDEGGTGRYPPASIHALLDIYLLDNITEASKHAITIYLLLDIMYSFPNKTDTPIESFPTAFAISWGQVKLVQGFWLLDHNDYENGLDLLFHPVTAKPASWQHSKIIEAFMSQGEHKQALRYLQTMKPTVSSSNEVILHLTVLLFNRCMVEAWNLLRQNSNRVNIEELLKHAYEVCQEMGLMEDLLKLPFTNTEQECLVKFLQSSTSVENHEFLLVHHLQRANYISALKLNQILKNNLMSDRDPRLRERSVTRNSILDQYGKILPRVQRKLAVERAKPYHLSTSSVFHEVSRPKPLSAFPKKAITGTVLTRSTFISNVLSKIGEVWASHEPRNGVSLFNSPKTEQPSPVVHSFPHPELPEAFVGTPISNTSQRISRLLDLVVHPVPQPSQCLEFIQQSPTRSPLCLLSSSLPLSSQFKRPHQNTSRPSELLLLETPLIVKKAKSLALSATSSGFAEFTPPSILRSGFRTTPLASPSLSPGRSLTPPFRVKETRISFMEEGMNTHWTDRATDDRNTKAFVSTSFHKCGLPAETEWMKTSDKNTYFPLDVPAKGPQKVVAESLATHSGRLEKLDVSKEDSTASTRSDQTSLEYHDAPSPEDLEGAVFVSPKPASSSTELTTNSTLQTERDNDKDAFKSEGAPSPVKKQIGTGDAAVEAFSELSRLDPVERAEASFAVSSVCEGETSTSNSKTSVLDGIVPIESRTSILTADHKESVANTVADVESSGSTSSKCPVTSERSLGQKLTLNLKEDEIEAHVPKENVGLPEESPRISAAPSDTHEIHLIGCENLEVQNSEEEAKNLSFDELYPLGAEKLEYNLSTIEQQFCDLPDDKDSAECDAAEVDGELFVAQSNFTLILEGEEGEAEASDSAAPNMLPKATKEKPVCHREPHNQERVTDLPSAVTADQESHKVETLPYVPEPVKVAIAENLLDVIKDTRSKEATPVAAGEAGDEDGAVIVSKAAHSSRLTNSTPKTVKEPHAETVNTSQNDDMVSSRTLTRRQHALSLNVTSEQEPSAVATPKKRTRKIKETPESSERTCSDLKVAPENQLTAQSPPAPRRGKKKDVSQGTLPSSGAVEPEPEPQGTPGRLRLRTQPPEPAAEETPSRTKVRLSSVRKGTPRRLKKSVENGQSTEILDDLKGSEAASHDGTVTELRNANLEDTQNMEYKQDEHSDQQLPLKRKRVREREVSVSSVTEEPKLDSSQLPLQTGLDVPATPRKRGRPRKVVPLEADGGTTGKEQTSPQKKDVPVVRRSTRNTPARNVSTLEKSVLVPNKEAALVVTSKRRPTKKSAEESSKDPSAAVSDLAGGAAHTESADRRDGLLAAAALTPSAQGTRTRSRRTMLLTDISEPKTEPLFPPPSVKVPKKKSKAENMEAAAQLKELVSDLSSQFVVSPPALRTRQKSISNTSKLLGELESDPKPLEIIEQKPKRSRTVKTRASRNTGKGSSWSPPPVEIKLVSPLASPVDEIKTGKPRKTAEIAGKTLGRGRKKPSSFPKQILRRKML
UniProt Q8K0T4: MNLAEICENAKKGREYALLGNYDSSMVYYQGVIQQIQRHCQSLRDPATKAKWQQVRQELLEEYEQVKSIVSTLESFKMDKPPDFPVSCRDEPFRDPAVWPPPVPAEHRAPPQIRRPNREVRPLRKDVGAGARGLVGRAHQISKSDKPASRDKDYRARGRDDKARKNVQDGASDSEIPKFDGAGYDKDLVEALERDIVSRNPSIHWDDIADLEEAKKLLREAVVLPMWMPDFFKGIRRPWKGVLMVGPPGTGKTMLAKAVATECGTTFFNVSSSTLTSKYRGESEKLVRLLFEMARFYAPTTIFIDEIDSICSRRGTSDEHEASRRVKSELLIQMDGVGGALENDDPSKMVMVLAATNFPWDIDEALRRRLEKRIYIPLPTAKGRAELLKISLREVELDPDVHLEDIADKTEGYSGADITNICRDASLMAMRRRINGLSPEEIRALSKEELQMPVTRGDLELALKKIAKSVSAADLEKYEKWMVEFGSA
UniProt Q8CIB6: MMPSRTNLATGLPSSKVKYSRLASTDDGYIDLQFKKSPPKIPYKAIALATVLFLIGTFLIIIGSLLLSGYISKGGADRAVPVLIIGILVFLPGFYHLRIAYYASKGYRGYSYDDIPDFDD
UniProt Q8CFQ3: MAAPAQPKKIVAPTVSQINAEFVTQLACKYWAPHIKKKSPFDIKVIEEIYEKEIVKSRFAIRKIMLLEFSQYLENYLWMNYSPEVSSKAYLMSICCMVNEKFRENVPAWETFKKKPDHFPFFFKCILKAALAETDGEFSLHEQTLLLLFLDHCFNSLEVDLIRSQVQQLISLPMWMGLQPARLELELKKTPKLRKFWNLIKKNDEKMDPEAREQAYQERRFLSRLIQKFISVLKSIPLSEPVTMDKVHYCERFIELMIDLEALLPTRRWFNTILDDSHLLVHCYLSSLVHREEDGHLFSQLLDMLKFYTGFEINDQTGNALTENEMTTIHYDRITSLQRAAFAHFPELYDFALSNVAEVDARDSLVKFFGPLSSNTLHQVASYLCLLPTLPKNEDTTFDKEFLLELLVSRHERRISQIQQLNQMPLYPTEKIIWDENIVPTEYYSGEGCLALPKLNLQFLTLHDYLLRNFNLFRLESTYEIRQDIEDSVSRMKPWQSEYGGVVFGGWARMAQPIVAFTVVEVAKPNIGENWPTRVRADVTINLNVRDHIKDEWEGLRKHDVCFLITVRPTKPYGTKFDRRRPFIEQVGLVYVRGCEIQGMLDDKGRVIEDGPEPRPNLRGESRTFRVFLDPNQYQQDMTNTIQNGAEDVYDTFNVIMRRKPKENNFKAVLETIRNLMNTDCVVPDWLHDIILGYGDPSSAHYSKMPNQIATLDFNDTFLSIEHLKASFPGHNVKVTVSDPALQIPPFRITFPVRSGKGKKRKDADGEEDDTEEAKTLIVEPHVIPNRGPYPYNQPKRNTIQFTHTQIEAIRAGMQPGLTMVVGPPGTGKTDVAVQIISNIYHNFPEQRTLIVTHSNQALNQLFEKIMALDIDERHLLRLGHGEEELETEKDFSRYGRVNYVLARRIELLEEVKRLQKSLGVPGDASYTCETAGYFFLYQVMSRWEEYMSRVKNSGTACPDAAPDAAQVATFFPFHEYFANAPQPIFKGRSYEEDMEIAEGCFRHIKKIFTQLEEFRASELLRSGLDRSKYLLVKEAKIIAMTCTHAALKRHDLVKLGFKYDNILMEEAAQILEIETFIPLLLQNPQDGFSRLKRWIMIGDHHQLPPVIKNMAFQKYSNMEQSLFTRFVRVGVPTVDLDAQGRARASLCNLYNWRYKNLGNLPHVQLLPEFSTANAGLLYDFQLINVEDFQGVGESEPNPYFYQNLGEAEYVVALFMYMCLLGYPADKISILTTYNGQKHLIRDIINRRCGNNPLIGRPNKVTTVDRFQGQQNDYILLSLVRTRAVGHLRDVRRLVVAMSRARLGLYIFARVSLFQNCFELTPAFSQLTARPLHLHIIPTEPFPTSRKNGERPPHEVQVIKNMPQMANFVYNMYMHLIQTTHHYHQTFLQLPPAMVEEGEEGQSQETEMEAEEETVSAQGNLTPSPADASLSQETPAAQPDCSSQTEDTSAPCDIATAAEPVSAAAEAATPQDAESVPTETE
UniProt Q8CE90: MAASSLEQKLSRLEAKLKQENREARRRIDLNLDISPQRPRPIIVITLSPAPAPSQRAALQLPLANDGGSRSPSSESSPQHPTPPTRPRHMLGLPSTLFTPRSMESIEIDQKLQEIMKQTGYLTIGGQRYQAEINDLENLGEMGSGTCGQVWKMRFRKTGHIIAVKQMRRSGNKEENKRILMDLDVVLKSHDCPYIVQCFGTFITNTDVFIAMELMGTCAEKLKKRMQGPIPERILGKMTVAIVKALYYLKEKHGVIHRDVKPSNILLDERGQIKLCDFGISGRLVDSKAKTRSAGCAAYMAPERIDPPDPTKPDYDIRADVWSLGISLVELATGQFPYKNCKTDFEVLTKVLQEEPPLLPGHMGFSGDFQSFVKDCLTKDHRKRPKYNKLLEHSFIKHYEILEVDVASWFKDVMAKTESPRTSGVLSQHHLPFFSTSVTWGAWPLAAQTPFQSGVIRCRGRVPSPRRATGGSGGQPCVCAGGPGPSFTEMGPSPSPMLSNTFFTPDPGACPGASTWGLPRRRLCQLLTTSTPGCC
UniProt Q8JZU0: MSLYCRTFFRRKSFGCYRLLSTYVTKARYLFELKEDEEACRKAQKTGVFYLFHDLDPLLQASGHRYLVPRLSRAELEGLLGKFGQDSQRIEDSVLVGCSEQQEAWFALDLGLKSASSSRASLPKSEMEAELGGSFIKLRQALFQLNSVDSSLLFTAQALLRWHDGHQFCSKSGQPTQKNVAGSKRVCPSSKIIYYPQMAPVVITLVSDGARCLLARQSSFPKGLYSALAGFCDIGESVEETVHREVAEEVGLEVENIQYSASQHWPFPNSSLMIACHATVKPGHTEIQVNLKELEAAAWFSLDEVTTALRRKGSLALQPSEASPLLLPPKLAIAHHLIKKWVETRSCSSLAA
UniProt Q8CGC4: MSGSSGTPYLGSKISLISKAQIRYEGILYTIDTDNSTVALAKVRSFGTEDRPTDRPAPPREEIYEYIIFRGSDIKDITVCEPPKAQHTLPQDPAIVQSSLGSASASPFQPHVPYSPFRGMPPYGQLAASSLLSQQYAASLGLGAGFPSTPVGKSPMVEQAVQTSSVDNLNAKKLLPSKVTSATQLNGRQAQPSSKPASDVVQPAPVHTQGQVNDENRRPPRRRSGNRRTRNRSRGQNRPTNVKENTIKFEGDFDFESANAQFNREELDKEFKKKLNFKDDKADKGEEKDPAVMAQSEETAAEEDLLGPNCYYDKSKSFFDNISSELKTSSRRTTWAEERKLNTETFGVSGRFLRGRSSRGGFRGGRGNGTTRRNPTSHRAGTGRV

Compound in the assay: CN[C@@H]1C[C@H]2O[C@@](C)([C@@H]1OC)n1c3ccccc3c3c4c(c5c6ccccc6n2c5c31)C(=O)NC4 [staurosporine]
Nature of the assay: log2 fold change of tryptic peptide abundance, ligand vs vehicle (limited proteolysis) (log2 ratio); higher = more trypsin-susceptible (destabilized). The following applies: ligand concentration: 20 uM; sample: mouse liver crude lysate; replicate design: treated separately.
Regarding “UniProt Q8CBG9 (peptide sequence: VLREQFQTEQDVPAPAR, peptide start residue: 90)”, the log2 fold change was -0.0906.

With “UniProt Q8CEI1 (peptide sequence: TVQQHQMVNQALKEEIK, peptide start residue: 80)”, the log2 fold change worked out at 0.141.

As for “UniProt Q8CJF7 (peptide sequence: ENVGLPEESPR, peptide start residue: 1499)”, the log2 fold change turned out to be 0.129.

As for “UniProt Q8K0T4 (peptide sequence: IYIPLPTAK, peptide start residue: 374)”, the log2 fold change worked out at 0.388.

As for “UniProt Q8CIB6 (peptide sequence: TNLATGLPSSK, peptide start residue: 6)”, the log2 fold change is -0.0367.

Turning to “UniProt Q8CFQ3 (peptide sequence: VIEDGPEPRPNLR, peptide start residue: 607)”, the log2 fold change was -0.353.

As for “UniProt Q8CB62 (peptide sequence: HIFEMESVR, peptide start residue: 96)”, the log2 fold change is 0.394.

Turning to “UniProt Q8CE90 (peptide sequence: HMLGLPSTLFTPR, peptide start residue: 89)”, the log2 fold change was -0.142.

Take “UniProt Q8JZU0 (peptide sequence: WHDGHQFCSK, peptide start residue: 162)”: the log2 fold change worked out at 0.507.

For the target “UniProt Q8CGC4 (peptide sequence: KLNTETFGVSGR, peptide start residue: 340)”, the log2 fold change turned out to be 0.0951.

In the case of “UniProt Q8CDG3 (peptide sequence: AFLIEPEHVNTVGYGKDR, peptide start residue: 166)”, the log2 fold change is -0.134.

The values above are taken from the supplement of paper PMC12819154, “High-throughput peptide-centric local stability assay extends protein–ligand identification to membrane proteins, tissues and bacteria” (Nature Structural & Molecular Biology, 2025).
